According to article PMC10642969:
No constants are given. Whether binding was seen depends on the method and setting. Binding seen in cells or lysates may run through a third protein. Some entries that bind do so weakly or less than the wild type.

T1: SCARECROW (SCR), SCR-RFP (Arabidopsis thaliana), Q9M384
T1 chain: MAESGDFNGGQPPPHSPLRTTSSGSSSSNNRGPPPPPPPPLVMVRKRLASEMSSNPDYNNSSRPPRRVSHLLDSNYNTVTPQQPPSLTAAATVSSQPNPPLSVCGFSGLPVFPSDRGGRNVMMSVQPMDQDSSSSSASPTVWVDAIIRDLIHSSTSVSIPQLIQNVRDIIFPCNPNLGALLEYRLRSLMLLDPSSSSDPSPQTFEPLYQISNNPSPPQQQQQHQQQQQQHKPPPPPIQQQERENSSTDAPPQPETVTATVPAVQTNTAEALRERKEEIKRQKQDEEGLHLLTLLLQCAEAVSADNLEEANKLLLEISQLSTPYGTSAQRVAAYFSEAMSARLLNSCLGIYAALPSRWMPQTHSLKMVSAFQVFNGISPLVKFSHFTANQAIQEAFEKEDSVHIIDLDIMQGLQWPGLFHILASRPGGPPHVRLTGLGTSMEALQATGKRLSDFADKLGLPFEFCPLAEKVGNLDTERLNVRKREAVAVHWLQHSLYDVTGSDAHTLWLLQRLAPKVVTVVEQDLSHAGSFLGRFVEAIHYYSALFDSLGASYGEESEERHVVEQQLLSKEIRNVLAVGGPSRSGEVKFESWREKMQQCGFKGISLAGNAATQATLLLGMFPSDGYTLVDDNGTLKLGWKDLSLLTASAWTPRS


Assays:
[1] = target: SCARECROW-LIKE23 (SCL23), SCL23-mVenus (Arabidopsis thaliana) (UniProt Q9FHZ1); test: FRET or BRET; FRET acceptor photobleaching in nuclei of N. benthamiana leaf epidermal cells after inducible transient expression; mVenus donor, mCherry acceptor
[2] = target: T1, SCARECROW (SCR), SCR-RFP (Arabidopsis …); test: FRET or BRET; FRET-FLIM in vivo in Arabidopsis shoot meristems (lateral organ, sepal and petal primordia); YFP fusion as donor, RFP fusion as acceptor; intensity-weighted mean donor lifetime, bi-exponential fit; conditions: remark: other sources report otherwise

Row | Binder | binding [1] | binding [2]
1 | SCARECROW-LIKE23 (SCL23), SCL23-mVenus (protein, UniProt Q9FHZ1 1-405) MTTKRIDRDLPSSDDPSSAKRRIEFPEETLENDGAAAIKLLSLLLQCAEYVATDHLREASTLLSEISEICSPFGSSPERVVAYFAQALQTRVISSYLSGACSPLSEKPLTVVQSQKIFSALQTYNSVSPLIKFSHFTANQAIFQALDGEDSVHIIDLDVMQGLQWPALFHILASRPRKLRSIRITGFGSSSDLLASTGRRLADFASSLNLPFEFHPIEGIIGNLIDPSQLATRQGEAVVVHWMQHRLYDVTGNNLETLEILRRLKPNLITVVEQELSYDDGGSFLGRFVEALHYYSALFDALGDGLGEESGERFTVEQIVLGTEIRNIVAHGGGRRKRMKWKEELSRVGFRPVSLRGNPATQAGLLLGMLPWNGYTLVEENGTLRLGWKDLSLLTASAWKSQPFD | binds weakly | –
2 | SCARECROW (SCR), SCR-RFP, Q9M384 1-653 (protein) MAESGDFNGGQPPPHSPLRTTSSGSSSSNNRGPPPPPPPPLVMVRKRLASEMSSNPDYNNSSRPPRRVSHLLDSNYNTVTPQQPPSLTAAATVSSQPNPPLSVCGFSGLPVFPSDRGGRNVMMSVQPMDQDSSSSSASPTVWVDAIIRDLIHSSTSVSIPQLIQNVRDIIFPCNPNLGALLEYRLRSLMLLDPSSSSDPSPQTFEPLYQISNNPSPPQQQQQHQQQQQQHKPPPPPIQQQERENSSTDAPPQPETVTATVPAVQTNTAEALRERKEEIKRQKQDEEGLHLLTLLLQCAEAVSADNLEEANKLLLEISQLSTPYGTSAQRVAAYFSEAMSARLLNSCLGIYAALPSRWMPQTHSLKMVSAFQVFNGISPLVKFSHFTANQAIQEAFEKEDSVHIIDLDIMQGLQWPGLFHILASRPGGPPHVRLTGLGTSMEALQATGKRLSDFADKLGLPFEFCPLAEKVGNLDTERLNVRKREAVAVHWLQHSLYDVTGSDAHTLWLLQRLAPKVVTVVEQDLSHAGSFLGRFVEAIHYYSALFDSLGASYGEESEERHVVEQQLLSKEIRNVLAVGGPSRSGEVKFESWREKMQQCGFKGISLAGNAATQATLLLGMFPSDGYTLVDDNGTLKLGWKDLSLLTASAWTPRS | – | no binding
